Data as given in PubChem BioAssay AID686938 (Drosophila RNAi Screening Center, 2013)

Aim: 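Looking for CRAC channel components and the factors controlling them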 (primary screen)
Cells: Drosophila S2R+ cells
Reagent: long dsRNA against Drosophila genes, about 0.25 µg dsRNA per well, roughly 10,000 cells
Time to read-out: 5 days of knock-down before the calcium assay
Conditions: thapsigargin (SERCA pump blocker) to empty calcium stores; entry signal taken 4 min after adding it
Detection: 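Duplicate raw fluo-4 intensities per well from a plate reader, at rest and four minutes after thapsigargin emptied calcium stores; entry-to-rest ratio filled for only some wells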
Reading the numbers: calcium entry signal: higher = stronger calcium signal after store depletion; entry to resting ratio: higher = more calcium entry relative to resting level; resting calcium signal: higher = higher resting calcium signal
Rule for the call: 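Hit if the duplicate-averaged plate z-score for entry over resting signal is under −3; wells with weak total dye signal (Fmax z < −2) or more than 5 off-targets removed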
Meaning of the calls: active = strongly reduced calcium entry; inactive = no strong reduction
The deposit covers about 23,000 reagents; this is an unselected part of those that have a named target and a result. Over the whole deposit, 75 (0.33%) are marked active. 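Raw plate signals without normalisation; calls rest on plate z-scores that were not deposited; ratio present for only 364 wells.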 Entries without a mark were called inactive. The numbers tell different reagents against one gene apart. Names joined by + are all predicted targets of the reagent. Not stated in the record: the dose of the treatment.

predicted target,reagent,"calcium entry signal, replicate 1 (fluorescence units)","calcium entry signal, replicate 2 (fluorescence units)",entry to resting ratio,"resting calcium signal, replicate 1 (fluorescence units)","resting calcium signal, replicate 2 (fluorescence units)"
CG7448 (retired record),1,4.07e7,4.75e7,,1.93e7,3.02e7
CG7448 (retired record),2,4.37e7,3.55e7,,2.20e7,1.63e7
CG43307,1,2.34e7,3.09e7,,1.32e7,1.55e7
CG34051,1,1.66e7,3.94e7,,7.85e6,2.21e7
CG17687,1,3.29e7,4.41e7,,1.68e7,1.97e7
Vps28,1,3.49e7,4.50e7,,2.14e7,2.31e7
CG13311,1,3.45e7,5.15e7,,1.58e7,2.15e7
CG11596,1,3.30e7,3.77e7,,1.50e7,1.85e7
foi,1,3.04e7,3.76e7,,1.53e7,1.81e7
asRNA:CR43469 + Balat,1,3.91e7,4.83e7,,1.72e7,2.06e7
CG14000,1,3.35e7,3.15e7,,1.63e7,1.56e7
CG33288,1,3.31e7,5.20e7,,1.81e7,2.33e7
Lpt,1,4.34e7,4.32e7,,2.12e7,2.09e7
Lpt,2,2.62e7,,,2.41e7,
Tsp42En,1,2.87e7,4.06e7,,1.41e7,1.68e7
CG33263,1,3.45e7,3.86e7,,1.83e7,1.64e7
asRNA:CR30267,1,3.21e7,3.97e7,,1.86e7,1.88e7
CG3699,1,6.01e7,5.22e7,2.1,2.89e7,2.32e7
CG3699,2,3.02e7,3.66e7,2.1,1.44e7,1.43e7
CG7514,1,2.49e7,3.27e7,,1.18e7,1.38e7
plu,1,5.46e7,5.36e7,,2.45e7,2.64e7
CG32006,1,3.55e7,3.62e7,,1.96e7,1.60e7
CG16727,1,3.94e7,4.11e7,,5.88e7,1.89e7
Sems,1,3.67e7,5.33e7,,1.67e7,2.26e7
Dph1,1,4.00e7,2.48e7,,2.97e7,1.22e7
Acp26Ab,1,3.78e7,3.30e7,,1.81e7,1.51e7
Prp38,1,1.92e7,1.92e7,,9.67e6,9.97e6
Ugt35B1,1,4.46e7,4.48e7,,1.77e7,2.00e7
Cdk8,1,4.93e7,2.83e7,,2.86e7,1.43e7

Targets above whose target name begins with A or a (3):
predicted target,reagent,"calcium entry signal, replicate 1 (fluorescence units)","calcium entry signal, replicate 2 (fluorescence units)",entry to resting ratio,"resting calcium signal, replicate 1 (fluorescence units)","resting calcium signal, replicate 2 (fluorescence units)"
asRNA:CR43469 + Balat,1,3.91e7,4.83e7,,1.72e7,2.06e7
asRNA:CR30267,1,3.21e7,3.97e7,,1.86e7,1.88e7
Acp26Ab,1,3.78e7,3.30e7,,1.81e7,1.51e7

The results go on.
predicted target,reagent,"calcium entry signal, replicate 1 (fluorescence units)","calcium entry signal, replicate 2 (fluorescence units)",entry to resting ratio,"resting calcium signal, replicate 1 (fluorescence units)","resting calcium signal, replicate 2 (fluorescence units)"
CG12860,1,2.70e7,4.59e7,,1.38e7,1.94e7
CG14861,1,3.42e7,5.44e7,,1.65e7,6.30e7
GstD11,1,3.42e7,4.13e7,,1.66e7,2.19e7
Den1,1,3.04e7,4.13e7,,1.56e7,1.79e7
CG6168,1,2.66e7,4.80e7,,1.41e7,1.98e7
Cpr64Aa,1,3.25e7,2.95e7,,1.72e7,1.52e7
lncRNA:CR43485,1,3.18e7,4.34e7,,1.66e7,1.96e7
CG31562 (retired record),1,4.11e7,4.57e7,,2.04e7,2.10e7
CG31562 (retired record),2,4.30e7,4.70e7,,2.21e7,2.03e7
dpy,1,2.41e7,3.47e7,,1.38e7,1.65e7
dpy,2,3.39e7,3.72e7,,1.73e7,1.71e7
dpy,3,3.17e7,2.81e7,,1.50e7,1.31e7
CG42564,1,2.89e7,2.44e7,,1.44e7,1.31e7
CG10527,1,3.88e7,,,1.97e7,
Mgat4a,1,4.17e7,3.85e7,,1.89e7,1.80e7
Mgat4a,2,4.40e7,5.93e7,,2.09e7,2.07e7
rdgC,1,1.66e7,3.91e7,,9.02e6,1.61e7
Dsor1,1,2.86e7,2.67e7,,1.72e7,1.62e7
Or69a,1,2.91e7,4.21e7,,1.47e7,1.85e7
PIG-T,1,3.19e7,4.04e7,,1.65e7,1.89e7
Mes2,1,2.47e7,3.65e7,,1.39e7,1.62e7
Mes2,2,3.61e7,2.72e7,,1.67e7,1.44e7
CG12692,1,3.35e7,4.43e7,,1.64e7,1.98e7
Rcc1,1,2.72e7,2.42e7,,2.25e7,1.26e7
Sr-CIII,1,2.98e7,3.33e7,,1.52e7,1.61e7
vimar,1,4.07e7,,,2.08e7,
Pde1c,1,3.50e7,4.27e7,,1.84e7,1.84e7
Pde1c,2,3.59e7,4.07e7,,1.91e7,1.80e7
Pde1c,3,3.71e7,5.05e7,,1.91e7,2.27e7
Pde1c,4,3.22e7,4.14e7,,1.73e7,1.84e7
Pde1c,5,2.69e7,1.91e7,,1.27e7,9.79e6
Pde1c,6,2.86e7,1.89e7,,1.41e7,9.98e6
CG42565,1,3.75e7,3.34e7,,1.83e7,1.57e7
Ilk,1,6.26e7,2.33e7,,2.58e7,1.20e7
Brd7-9,1,5.73e7,,,2.97e7,
sNPF-R,1,3.07e7,5.34e7,,1.50e7,2.14e7
opm,1,3.35e7,3.93e7,,1.60e7,1.83e7
opm,2,1.56e7,3.00e7,,9.80e6,1.67e7
CG33301,1,2.54e7,3.84e7,,1.05e7,1.76e7
CR33315,1,2.97e7,4.01e7,,1.49e7,1.80e7
asp,1,5.49e7,4.34e7,,2.48e7,1.82e7
CG10395,1,3.58e7,,,1.80e7,
tefu,1,3.56e7,4.60e7,,1.73e7,7.07e7
FucT6,1,3.04e7,3.64e7,,1.46e7,1.63e7
mRpL51,1,5.68e7,,,2.36e7,
CG10265,1,4.14e7,3.50e7,,1.93e7,1.55e7
CG10265,2,3.79e7,3.95e7,,2.22e7,1.73e7
